Measured values taken from article PMC8056617.
These are yes or no findings as the source states them, for the method shown. Binding seen in cells or lysates may run through a third protein. Some binding calls cover weakened binding; strength is not graded here. One block for each binder: values may come before it.

Biological target: T1, phosphorylated mixed lineage kinase domain-like (p-MLKL (Ser345)) (rat (endogenous in hippocampal CA1)) (UniProt D3ZKP6)
T1 sequence (chain, phosphoserine at 345 (printed as p-MLKL (Ser345))): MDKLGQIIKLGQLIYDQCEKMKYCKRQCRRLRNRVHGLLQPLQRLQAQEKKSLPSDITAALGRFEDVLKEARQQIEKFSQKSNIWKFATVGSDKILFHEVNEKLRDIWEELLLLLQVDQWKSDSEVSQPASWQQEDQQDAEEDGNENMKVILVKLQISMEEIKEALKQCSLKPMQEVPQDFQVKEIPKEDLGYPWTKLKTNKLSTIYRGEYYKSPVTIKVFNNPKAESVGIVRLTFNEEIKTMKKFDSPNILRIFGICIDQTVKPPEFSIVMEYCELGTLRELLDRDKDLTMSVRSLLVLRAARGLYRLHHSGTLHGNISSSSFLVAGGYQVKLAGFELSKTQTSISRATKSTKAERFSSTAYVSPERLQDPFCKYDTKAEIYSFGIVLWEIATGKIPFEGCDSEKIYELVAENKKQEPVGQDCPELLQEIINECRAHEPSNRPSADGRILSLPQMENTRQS
Experiment: co-IP; 0.6 mg of protein from rat hippocampal CA1 incubated with rabbit monoclonal antibody against p-MLKL overnight at 4 °C, protein G agarose beads 4 h at 4 °C, washed five times with PBS containing 1% Tween, Western blotting; Sham, tGCI (4 and 48 h after reperfusion), hypoxic preconditioning or MLKL siRNA before tGCI

- binding: binds
B1: receptor interacting protein (RIP) 3 (protein, UniProt Q9Z2P5 1-478)
chain: MSSVKLWLNGASSISLVGSEELENLGFVGKGGFGAVFRARHTAWNLDVAVKIVNSKKISREVKAMVNLRHENVLLLLGVTENLEWDYVYGPALVTGFMENGSLSGLLQPSCPRPWPLLCRLLEEVVLGMCYLHSLNPSLLHRDLKPSNVLLDPELHAKLADFGLSTFQGGSQSGSGSGSRDSGGTLAYLAPELLDNDGKASKASDVYSFGVLVWTVLAGREAEVVDKTSLIRGAVCNRQRRPPLTELPPDSPETPGLEGLKELMTHCWSSEPKDRPSFQDCESKTNNVYILVQDKVDAAVSKVKHYLSQYRSSDTKLSARESSQKGTEVDCPRETIVYEMLDRLHLEEPSGSVPERLTSLTERRGKEASFGHATPAGTSSDTLAGTPQIPHTLPSRGTTPRPAFTETPGPDPQRNQGDGRNSNPWYTWNAPNPMTGLQSIVLNNCSEVQIGQHNCMSVQPRTAFPKKEPAQFGRGRGW

- binding: binds
B2: interleukin-1 type 1 receptor (IL-1R1) (receptor, UniProt Q02955 20-576)
chain: LETDKCTEYPNEVISFSSVNEIDIRSCPLTPNEMHGGTIIWYKNDSKTPISADKDSRIHQQNEHLWFVPAKMEDSGYYYCIMRNSTYCLKTKITMSVLENDPGLCYNTQASFIQRLHVAGDGSLVCPYLDFFKDENNELPKVQWYKNCKPLPLDDGNFFGFKNKLMVMNVAEEHRGNYTCRTSYTYQGKQYPVTRVITFITIDDSKRDRPVIMSPRNETMEADPGSTIQLICNVTGQFTDLVYWKWNGSEIEWDDPILAEDYQFLEHPSAKRKYTLITTLNVSEVKSQFYRYPFICFVKNTHILETAHVRLVYPVPDFKNYLIGGFAIFTATAVFCACIYKVFKVDIVLWYRDSCSDFLPRKASDGRTYDAYVLYPKTYGEGSFAYLDTFVFKLLPEVLEGQFGYKLFICGRDDYVGEDTIEVTNENVKRSRRLIIILVRDMGSFSCLGQSSEEQIAIYDALIREGIKIILLELEKIQDYEKMPESIQFIKQKHGAICWSGDFKERPQSAKTRFWKNLRYQMPAQRRSPLSKHHLLTLDPVLDTKEKLQAETHLPLG
